Where two headings read alike, the source gives them in different places. For some of these results: At least one compound was matched to its structure with a doubt left. Some results were stated once for a whole list of compounds, not compound by compound.
Experiments:
Format in all cases: cell-based, human
HL-60 cells [1] = experiment: Effect of 10 mM citric acid on HL-60 energy utilization
HL-60 cells [2] = experiment: HL-60 responses in PM1a, PM6, PM7 and PM8 plates
Experimental: In this Example, methods for testing unattached cells for their ability to use various carbon sources including di and tri-peptides are described.
After washing, HL-60 cells were resuspended in DME-R. An aliquot of the cell suspension was counted by trypan blue exclusion and the cell density was adjusted to 1×10^6/mL. Fifty μL of DME-R were added to each well of the appropriate number of half area, 96-well plates. The cells were plated at a volume of 50 μL/well, giving a final cell density of 5×10^4/well. PM1a, MP6, PM7, and PM8 MICROPLATE testing plates were inoculated (these MICROPLATE testing plates are available from Biolog under license). For each plate containing chemicals and cells, a second, control plate containing only chemicals was prepared. All wells contained a total volume of 100 μL. Plates were incubated at 5% CO2, 90-100% humidity, and 37° C. for 1 hour prior to addition of the MTS/MPMS colorometric reagent (5 μL/well). The color formed in each well after an additional 24 hour incubation period, was measured on a plate reader at 490 nm with a reference wavelength of 650 nm. OD values from the control plate were subtracted from the OD values obtained with cells prior to normalizing the data to % negative control (cells without added energy source).

HL-60 cells [3] = experiment: HL-60 cells in PM1 and PM2 plates, MTS/MPMS color, % negative control; conditions: PM 1 microplate; 5×10^4 cells/well; 24 hour color development
HepG2 cells = HepG2 cells cultured on CYTODEX 3 microcarriers, energy sources; conditions: 68 hours culture; responses greater than 140% of the negative control scored positive
Experimental: In this Example, methods for testing adherent cells cultured in suspension, for their ability to use multiple carbon sources are described. HepG2 cells were cultured as described in Example 30.
HepG2 cells were harvested by trypsinization for 3 minutes in 0.25% trypsin-1 mM EDTA and resuspended in an equal volume of culture medium. A viable cell count was obtained by trypan blue exclusion and the appropriate volume of the cell suspension to have 2.7×10^6 cells/0.1 gm CYTODEX 3 (Sigma C3275) microcarrier beads was determined. Microcarrier beads had been previously prepared by 1) rehydration in calcium-magnesium free (CMF) DPBS for 3 hours, 2) autoclaving for 15 minutes, and 3) washing twice in MEM without serum. The cell suspension was added to the beads in a 50 mL tube, and the volume adjusted to 5 mL. Cells were allowed to attach for 1 hour in an atmosphere of 5% CO2, 90-100% humidity, and 37° C., with resuspension every 15 minutes. […]
For the assay, 70 μL of DME with 10% HI FBS and penicillin-streptomycin but without glucose, L-glutamine, sodium pyruvate, or phenol red were added to each well, followed by 30 μL of the appropriate dilution of each test energy source. […] The color formed in each well 4-8 hours after addition of the colorimetric reagent, was measured with a plate reader at 490 nm with a reference wavelength of 650 nm. […]

HL-60 cells [4] = experiment: Effect of 1 mM chloramphenicol on HL-60 energy utilization; conditions: in the presence of 1 mM chloramphenicol
Experimental: In this Example, methods for testing antimicrobial-induced modulation in growth of a cell are described. The antimicrobial selected for this Example is chloramphenicol. However, this application is not intended to be limited to the use of chloramphenicol, translation inhibitors or even antibiotics. HL-60 cells were cultured as described in Example 27.
After washing, HL-60 cells were resuspended in DME-R. An aliquot of the cell suspension was counted by trypan blue exclusion and the cell density was adjusted to 6.67×10^5[…]. Fifty μL of DME-R containing 3 mM chloramphenicol were added to each well of the appropriate number of half area, 96-well plates, followed by 25 μL of the appropriate dilution of each test energy source. Stocks of 133 mM of each test chemical were prepared in tissue culture grade water, sterile filtered, and dilutions were prepared in a master plate so that, upon dilution in a total volume of 150 μL, the final concentrations would be 0.033 to 20 mM. Negative control wells received 25 μL of tissue culture grade water. The cells were plated at a volume of 75 μL/well, giving a final cell density of 5×10^4/well. […] The color formed in each well 24 hours after addition of the colorimetric reagent, was measured with a plate reader at 490 nm with a reference wavelength of 650 nm. […]
Data shown in Table 25 are expressed as percent negative control without chloramphenicol. […]

HL-60 cells [5] = experiment: HL-60 responses to selected compounds at a range of concentrations; conditions: 0.033 to 20 mM; 24 h culture + 24 h color development
Experimental: In this Example, methods for testing unattached cells for their ability to use various concentrations of selected carbon sources are described. The carbon sources used in this Example were identified by the methods disclosed in Example 27. Similarly, HL-60 cells were cultured as described in Example 27.
After washing, HL-60 cells were resuspended in DME-R. An aliquot of the cell suspension was counted by trypan blue exclusion and the cell density was adjusted to 6.67×10^5/mL. Fifty μL of DME-R were added to each well of the appropriate number of half area, 96-well plates, followed by 23 μL of the appropriate dilution of each test energy source. Stocks of 133 mM of each test chemical were prepared in tissue culture grade water, sterile filtered, and dilutions were prepared in a master plate so that, upon dilution in a total volume of 150 μL, the final concentrations would be 0.033 to 20 mM. Negative control wells received 23 μL of tissue culture grade water. The cells were plated at a volume of 75 μL/well, giving a final cell density of 5×10^4/well. For each plate containing energy sources and cells, a second, control plate containing only energy sources was prepared. Plates were incubated at 5% CO2, 90-100% humidity, and 37° C. for 24 hours prior to addition of the MTS/MPMS colorometric reagent (7.5 μL/well). The color formed in each well after an additional 24 hour incubation period, was measured on a plate reader at 490 nm with a reference wavelength of 650 nm. OD values from the control plate were subtracted from the OD values obtained with cells prior to normalizing the data to % negative control (cells without added energy source).

## COC(=O)CCC(=O)O [Mono-methyl succinate]
HL-60 cells [1]
  cell activity in the presence of citric acid, in words: able to restore cell activity to the level
HL-60 cells [1]; listed as mono-methyl-succinate
  cell activity in the presence of citric acid, in words: capable of overcoming the antiproliferative effects of citric acid
HL-60 cells [2]
  positive response, % of the negative control: greater than 130%
HL-60 cells [3]
  positive response, % of the negative (no energy source) control: greater than 130%
HepG2 cells
  response in words: narrow range of responsiveness
HL-60 cells [4]
  protective effect of energy source: limited protective effect
HL-60 cells [5]
  response greater than the negative control: at least 40%

Reference: patent publication US9274101B2 (BIOLOG, Inc., priority 2001, dated 2016)
